Measurements reported in PubChem BioAssay AID1224828 (NIAID, 2016)

Test: 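Knock-downs that increase or decrease LPS-induced p65 nuclear translocation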 (primary screen)
Cells: mouse RAW264.7 G9 macrophage reporter cells (GFP-p65, Tnf promoter-mCherry)
Reagents: siRNA pool against mouse genes, 100 nM
Time to read-out: 2 days siRNA transfection, then 40 min LPS before fixation
Treatment: LPS (Salmonella minnesota R595) at 10 ng/ml
Measured: 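Imaged p65 nuclear translocation ratio, normalised to the plate median, converted to robust z-scores and averaged across two replicates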
Direction: p65 translocation robust z-score: higher = more nuclear NF-kappaB p65 after LPS than the plate median; nuclear/cytoplasmic p65 ratio: higher = more nuclear NF-kappaB p65
Hit rule: 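Active if robust z is above 3.3 (negative regulators) or below -1.56, the Tlr4 control median (positive regulators); activity score 50 or more; control wells not called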
Meaning of the calls: active = hit (p65 shift raised or lowered); inactive = no clear change
In all, the deposit lists about 17,000 reagents; below is an unselected part. In the full data, 762 (4.5%) are marked active. 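Active calls include both raised and lowered p65 entry, mostly lowered; wells with fewer than 50 cells lack a z-score.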 Raw values are not corrected between plates.

{"gene": "Pbx1 (pre B cell leukemia homeobox 1)", "p65 translocation robust z-score": -0.12, "nuclear/cytoplasmic p65 ratio, rep 1": 1.43, "nuclear/cytoplasmic p65 ratio, rep 2": 1.4, "low cell count flag": "enough cells to score", "activity call": "inactive"}
{"gene": "Amigo2 (adhesion molecule with Ig like domain 2)", "p65 translocation robust z-score": -0.11, "nuclear/cytoplasmic p65 ratio, rep 1": 1.49, "nuclear/cytoplasmic p65 ratio, rep 2": 1.77, "low cell count flag": "enough cells to score", "activity call": "inactive"}
{"gene": "4833444G19Rik (RIKEN cDNA 4833444G19 gene)", "nuclear/cytoplasmic p65 ratio, rep 1": 1.35, "nuclear/cytoplasmic p65 ratio, rep 2": 1.26, "low cell count flag": "fewer than 50 cells per well; well left out of scoring", "activity call": "inactive"}
{"gene": "Gan (giant axonal neuropathy)", "p65 translocation robust z-score": 1.31, "nuclear/cytoplasmic p65 ratio, rep 1": 1.58, "nuclear/cytoplasmic p65 ratio, rep 2": 1.57, "low cell count flag": "enough cells to score", "activity call": "inactive"}
{"gene": "Gemin4 (gem nuclear organelle associated protein 4)", "p65 translocation robust z-score": -1.14, "nuclear/cytoplasmic p65 ratio, rep 1": 1.39, "nuclear/cytoplasmic p65 ratio, rep 2": 1.34, "low cell count flag": "enough cells to score", "activity call": "inactive"}
{"gene": "Mrgpra1 (MAS-related GPR, member A1)", "p65 translocation robust z-score": -0.49, "nuclear/cytoplasmic p65 ratio, rep 1": 1.8, "nuclear/cytoplasmic p65 ratio, rep 2": 1.43, "low cell count flag": "enough cells to score", "activity call": "inactive"}
{"gene": "Sprr2f (small proline-rich protein 2F)", "p65 translocation robust z-score": -0.16, "nuclear/cytoplasmic p65 ratio, rep 1": 1.44, "nuclear/cytoplasmic p65 ratio, rep 2": 1.18, "low cell count flag": "enough cells to score", "activity call": "inactive"}
{"gene": "Susd3 (sushi domain containing 3)", "nuclear/cytoplasmic p65 ratio, rep 1": 1.52, "nuclear/cytoplasmic p65 ratio, rep 2": 1.56, "low cell count flag": "fewer than 50 cells per well; well left out of scoring", "activity call": "inactive"}
{"gene": "Bmp8b (bone morphogenetic protein 8b)", "p65 translocation robust z-score": 1.68, "nuclear/cytoplasmic p65 ratio, rep 1": 1.55, "nuclear/cytoplasmic p65 ratio, rep 2": 1.76, "low cell count flag": "enough cells to score", "activity call": "inactive"}
{"gene": "Stard5 (StAR related lipid transfer domain containing 5)", "p65 translocation robust z-score": -0.1, "nuclear/cytoplasmic p65 ratio, rep 1": 1.48, "nuclear/cytoplasmic p65 ratio, rep 2": 1.16, "low cell count flag": "enough cells to score", "activity call": "inactive"}
{"gene": "Sec14l1 (SEC14-like lipid binding 1)", "p65 translocation robust z-score": 0.72, "nuclear/cytoplasmic p65 ratio, rep 1": 1.7, "nuclear/cytoplasmic p65 ratio, rep 2": 1.61, "low cell count flag": "enough cells to score", "activity call": "inactive"}
{"gene": "LOC269472 (retired record)", "p65 translocation robust z-score": 0.91, "nuclear/cytoplasmic p65 ratio, rep 1": 1.74, "nuclear/cytoplasmic p65 ratio, rep 2": 1.97, "low cell count flag": "enough cells to score", "activity call": "inactive"}
{"gene": "Fgf11 (fibroblast growth factor 11)", "p65 translocation robust z-score": -0.61, "nuclear/cytoplasmic p65 ratio, rep 1": 1.26, "nuclear/cytoplasmic p65 ratio, rep 2": 1.38, "low cell count flag": "enough cells to score", "activity call": "inactive"}
{"gene": "Slit2 (slit guidance ligand 2)", "p65 translocation robust z-score": 0.88, "nuclear/cytoplasmic p65 ratio, rep 1": 1.59, "nuclear/cytoplasmic p65 ratio, rep 2": 1.7, "low cell count flag": "enough cells to score", "activity call": "inactive"}
{"gene": "Med31 (mediator complex subunit 31)", "nuclear/cytoplasmic p65 ratio, rep 1": 1.88, "nuclear/cytoplasmic p65 ratio, rep 2": 2.19, "low cell count flag": "fewer than 50 cells per well; well left out of scoring", "activity call": "inactive"}
{"gene": "Vmn1r13 (vomeronasal 1 receptor 13)", "nuclear/cytoplasmic p65 ratio, rep 1": 1.15, "nuclear/cytoplasmic p65 ratio, rep 2": 1.18, "low cell count flag": "fewer than 50 cells per well; well left out of scoring", "activity call": "inactive"}
{"gene": "Dhx30 (DExH-box helicase 30)", "nuclear/cytoplasmic p65 ratio, rep 1": 1.68, "nuclear/cytoplasmic p65 ratio, rep 2": 1.6, "low cell count flag": "fewer than 50 cells per well; well left out of scoring", "activity call": "inactive"}
{"gene": "Alk (anaplastic lymphoma kinase)", "nuclear/cytoplasmic p65 ratio, rep 1": 1.69, "nuclear/cytoplasmic p65 ratio, rep 2": 1.08, "low cell count flag": "fewer than 50 cells per well; well left out of scoring", "activity call": "inactive"}
{"gene": "D6Ertd160e (DNA segment, Chr 6, ERATO Doi 160, expressed)", "p65 translocation robust z-score": -1.91, "nuclear/cytoplasmic p65 ratio, rep 1": 1.25, "nuclear/cytoplasmic p65 ratio, rep 2": 1.32, "low cell count flag": "enough cells to score", "activity call": "active"}
{"gene": "Satb2 (special AT-rich sequence binding protein 2)", "p65 translocation robust z-score": -0.23, "nuclear/cytoplasmic p65 ratio, rep 1": 1.39, "nuclear/cytoplasmic p65 ratio, rep 2": 1.12, "low cell count flag": "enough cells to score", "activity call": "inactive"}
{"gene": "Senp2 (SUMO/sentrin specific peptidase 2)", "nuclear/cytoplasmic p65 ratio, rep 1": 1.48, "nuclear/cytoplasmic p65 ratio, rep 2": 1.2, "low cell count flag": "fewer than 50 cells per well; well left out of scoring", "activity call": "inactive"}
